Measurements: patent US4385057A, “Diphenylbutyl-piperazinecarboxamides in pharmaceutical compositions and methods” (priority 1978, dated 1983)

What was measured:
thymus = experiment: Swim-test (stress-induced thymolymphatic involution); type: in vivo, mouse (NMRI female)
Source text: If an animal is in a stage of exhaustion the rise in glucocorticoids induced by the stress causes thymolymphatic involution and elicites a characteristic change in blood count. […] In the experiments NMRI female mice were used with well-documented thymic glands. In the experiments the mice were divided in four groups. In the first group the mice were allowed to stay in their home cages all the time. In the second group saline-treated mice were repeatedly forced to swim in water at a temperature of +5° C. for 1 min. once every hour, 6 times per day for four days. In the third group the mice were pre-treated once with the test compound 10 min. before the first swim-test, otherwise the mice were manipulated in the same way as in the second group. In the fourth group the mice were adrenalectomized three days before the start of the swim tests. Otherwise also this group was manipulated as the second group. All mice were killed on the 5th day of the experiment and the weight of the thymic gland registered.

[1] = system: acetic acid induced writhing; experiment: Writhing test (analgetic properties); type: in vivo, mouse (NMRI female); details: Mus musculus, sc, read-out: ED50, mg/kg, s.c. (dose blocking the writhing behaviour in 50% of the animals)
Experimental: The writhing test is a frequently used test of analgetic properties (L. B. Witkin et al., J. Pharmacol. Exp. Ther. 133, 400 (1961)). If acetic acid (0.5%, 15 ml/kg) is injected intraperitoneally in mice (NMRI) they will without exception develop a writhing behaviour characterized by stretching their hind legs. The drugs to be tested were administered subcutaneously to 6 female mice at each dose 20 min. before the injection of the acetic acid. After 10 min. the behaviour of the mice was studied in 5 min. The ED50 value is the dose blocking the writhing behaviour in 50% of the animals during the 5 min. study period. [drawing 13]

| Structure (SMILES) | protecting capacity against the induced stress (thymus; in words) | Relative weight of thymus, ×100 (thymus; pre-treatment dose 1.0 mg/kg, once 10 min before first swim-test, saline stressed 36, unstressed 66, Wilcoxon's ranking test) | ED50 [1] [mg/kg] |
| --- | --- | --- | --- |
| CN1C(=O)CN=C(c2ccccc2)c2cc(Cl)ccc21 [Diazepam] | less effective | 45 |  |
| CN1CC[C@]23c4c5ccc(O)c4O[C@H]2[C@@H](O)C=C[C@H]3[C@H]1C5 [Morphine] |  |  | 1.6 |
